{
  "sequences": {"note": "Amino acid sequences for entries named in this document (tags omitted).", "UniProt O00459": "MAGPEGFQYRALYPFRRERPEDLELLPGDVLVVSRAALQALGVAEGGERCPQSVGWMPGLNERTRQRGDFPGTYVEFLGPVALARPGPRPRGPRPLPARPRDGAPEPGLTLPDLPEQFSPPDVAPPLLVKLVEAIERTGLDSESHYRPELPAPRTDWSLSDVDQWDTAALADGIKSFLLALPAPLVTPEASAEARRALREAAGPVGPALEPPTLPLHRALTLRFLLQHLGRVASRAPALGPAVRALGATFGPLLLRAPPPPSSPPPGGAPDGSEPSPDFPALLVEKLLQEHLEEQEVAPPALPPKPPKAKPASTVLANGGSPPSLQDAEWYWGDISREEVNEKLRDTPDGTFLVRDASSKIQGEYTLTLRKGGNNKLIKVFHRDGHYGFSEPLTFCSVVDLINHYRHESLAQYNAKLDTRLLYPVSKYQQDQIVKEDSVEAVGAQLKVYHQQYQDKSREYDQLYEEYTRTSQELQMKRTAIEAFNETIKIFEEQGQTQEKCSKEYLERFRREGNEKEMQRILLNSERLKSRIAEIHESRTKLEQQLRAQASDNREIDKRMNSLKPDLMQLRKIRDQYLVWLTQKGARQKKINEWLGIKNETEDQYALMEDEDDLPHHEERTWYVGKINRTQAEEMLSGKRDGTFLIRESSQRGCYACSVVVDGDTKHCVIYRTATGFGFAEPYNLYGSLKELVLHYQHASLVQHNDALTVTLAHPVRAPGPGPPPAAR"},
  "source": "paper PMC9098222",
  "molecules": {"B1": {"name": "EBNA1 binding protein 2 (protein, UniProt Q99848 1-306)", "chain": "MDTPPLSDSESESDESLVTDRELQDAFSRGLLKPGLNVVLEGPKKAVNDVNGLKQCLAEFKRDLEWVERLDVTLGPVPEIGGSEAPAPQNKDQKAVDPEDDFQREMSFYRQAQAAVLAVLPRLHQLKVPTKRPTDYFAEMAKSDLQMQKIRQKLQTKQAAMERSEKAKQLRALRKYGKKVQTEVLQKRQQEKAHMMNAIKKYQKGFSDKLDFLEGDQKPLAQRKKAGAKGQQMRKGPSAKRRYKNQKFGFGGKKKGSKWNTRESYDDVSSFRAKTAHGRGLKRPGKKGSNKRPGKRTREKMKNRTH"}},
  "target": "T1, IRS4 (WT)-PafA (human) (UniProt O14654)",
  "T1 sequence": "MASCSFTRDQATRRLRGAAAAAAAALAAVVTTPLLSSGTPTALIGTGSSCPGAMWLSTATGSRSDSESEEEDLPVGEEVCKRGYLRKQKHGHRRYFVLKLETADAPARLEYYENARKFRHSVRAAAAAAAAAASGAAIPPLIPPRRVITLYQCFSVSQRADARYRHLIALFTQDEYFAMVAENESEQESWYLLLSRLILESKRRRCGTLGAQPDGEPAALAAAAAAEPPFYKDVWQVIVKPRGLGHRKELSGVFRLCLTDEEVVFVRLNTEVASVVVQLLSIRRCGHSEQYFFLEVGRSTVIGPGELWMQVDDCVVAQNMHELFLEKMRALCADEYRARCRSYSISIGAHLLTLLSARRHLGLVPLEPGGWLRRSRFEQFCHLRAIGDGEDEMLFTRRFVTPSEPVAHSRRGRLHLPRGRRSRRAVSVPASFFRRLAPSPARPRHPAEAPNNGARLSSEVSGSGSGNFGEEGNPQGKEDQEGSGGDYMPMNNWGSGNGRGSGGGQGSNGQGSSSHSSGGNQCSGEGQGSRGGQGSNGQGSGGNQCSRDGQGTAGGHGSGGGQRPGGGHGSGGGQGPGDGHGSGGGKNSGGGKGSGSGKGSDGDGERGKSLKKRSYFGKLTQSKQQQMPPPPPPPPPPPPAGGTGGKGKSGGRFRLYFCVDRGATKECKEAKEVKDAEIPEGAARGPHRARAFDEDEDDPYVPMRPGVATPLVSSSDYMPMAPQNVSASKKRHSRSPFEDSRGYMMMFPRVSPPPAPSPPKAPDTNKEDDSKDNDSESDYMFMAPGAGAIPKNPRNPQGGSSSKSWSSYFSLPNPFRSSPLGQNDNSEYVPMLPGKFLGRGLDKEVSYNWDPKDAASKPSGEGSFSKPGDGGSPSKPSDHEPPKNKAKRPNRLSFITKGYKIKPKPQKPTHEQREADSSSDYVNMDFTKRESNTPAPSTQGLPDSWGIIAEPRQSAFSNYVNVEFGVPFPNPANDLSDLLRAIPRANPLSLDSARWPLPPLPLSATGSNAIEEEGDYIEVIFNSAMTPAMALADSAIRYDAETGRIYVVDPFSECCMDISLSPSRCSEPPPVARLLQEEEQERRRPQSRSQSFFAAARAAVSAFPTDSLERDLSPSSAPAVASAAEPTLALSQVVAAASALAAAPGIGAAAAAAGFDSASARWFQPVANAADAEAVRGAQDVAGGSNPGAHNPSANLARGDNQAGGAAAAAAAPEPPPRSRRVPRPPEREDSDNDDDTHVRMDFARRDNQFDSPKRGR",
  "assay": "proximity labelling; PUP-IT: IRS4 (WT)-PafA or IRS4 (YF)-PafA stably expressed in iPup OVCAR-5 cells, doxycycline 2 μg/ml and biotin 4 μM for 24 hr, tagged proteins identified by mass spectrometry, triplicates, LFQ intensity of WT against YF mutants",
  "note": "No constants are given. Whether binding was seen depends on the method and setting. In cells and extracts the contact can be indirect. These calls come from enrichment with a bait or labelling near it, and not all partners need be listed.",
  "data": [
    {"molecule": "PIK3R2 (p85β), endogenous in OVCAR-5 cells (from UniProt O00459 1-728)", "values": [
      {"measurement": "binding", "result": "binds"}
    ]},
    {"molecule": "B1", "values": [
      {"measurement": "binding", "result": "binds"}
    ]}
  ]
}
